Reference: PubChem BioAssay AID493014 (National Center for Advancing Translational Sciences (NCATS), 2011)
Several values for one entry are separate records, joined by “and”; a condition that tells them apart may be missing. Identical values can stand only once. Some of the results follow. Further columns of the screen follow, without active or inactive calls. Compounds called inactive in the main read-out are mostly missing here. Words in brackets tell the shape of the fitted curve; partial curves, single points and poor fits give uncertain potencies.

Experiment: qHTS Assay to Find Inhibitors of Chronic Active B-Cell Receptor Signaling
Settings: ABC-DLBCL IkBa-CBG/CBR reporter, luminescence ratio (green luciferase fused to IkBa over red control in TMD8 lymphoma cells), 4 h
Outline: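 TMD8 ABC-DLBCL cells carrying doxycycline-inducible green luciferase fused to IkappaBalpha plus unfused red luciferase were exposed to compounds (up to 46 uM) for 4 hrs at 37C. Activity came from the overlap-corrected green/red luminescence ratio.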

[1] = measured here: CBR red luminescence, cell number
[2] = measured here: IkBa-CBG green luminescence

Question: Which AC50 [1] does the source give for C=CCc1ccccc1OCC(CN1CCCCC1)OC(C)=O (stereo unspecified) here?
Answer: 29.1 µM [falling, single point]

Question: Which AC50 [1] does the source give for COC(=O)Cc1c(C)nc2nc(NCc3ccc(Cl)cc3)[nH]n2c1=O here?
Answer: 23.1 µM [falling, partial curve, poor fit]

Question: Which AC50 [1] does the source give for Cc1sc(N/N=C/c2cccnc2)nc1-c1ccccc1 here?
Answer: 10 µM [falling, partial curve, poor fit]

Question: With O=C(c1ccc2c3c(cccc13)CC2)C1CCCN(C(=O)c2cc[n+]([O-])cc2)C1 (stereo unspecified) as the molecule, how does the AC50 [1] read?
Answer: 11.2 µM [falling, single point]

Question: For CCNC(=S)N/N=C/c1ccc(OCCOc2ccccc2C)cc1, which AC50 [1] is on record?
Answer: 2.59 µM [rising, full curve, poor fit]

Question: With Cc1noc(/C=C/N(C)C)c1S(=O)(=O)N1CCCC(C(=O)NCc2cccs2)C1 (stereo unspecified) as the molecule, how does the AC50 [1] read?
Answer: 18.4 µM [rising, single point]

Question: With CCCNC(=O)NC(=O)COc1ccc2oc3ccccc3c2c1 as the molecule, how does the AC50 [1] read?
Answer: 0.00517 µM [rising, full curve, poor fit]

Question: For O=C(COc1ccccc1)N1CCN(C(=O)c2cccc(F)c2)CC1, which AC50 [1] is on record?
Answer: 20.6 µM [rising, partial curve, poor fit]

Question: For CCn1ccnc1CN(C)Cc1cn(-c2ccccc2)nc1-c1ccc(OC)cc1F, which AC50 [1] is on record?
Answer: 0.0891 µM [rising, full curve, poor fit]

Question: For CCOc1cc(NS(=O)(=O)c2ccc(Cl)cc2)c(OCC)cc1NC(=O)CC(C)C, which AC50 [1] is on record?
Answer: 29.1 µM [rising, single point]

Question: Which AC50 [1] does the source give for Cc1cccc(-n2[nH]c3c4c(ccc3c2=O)C(=O)c2ccccc2C4=O)c1 here?
Answer: 0.58 µM [rising, full curve, poor fit]

Question: Which AC50 [1] does the source give for Cc1cccc(NC(=O)CSc2nnc(Cn3nnc(-c4ccccc4)n3)n2-c2ccccc2)c1 here?
Answer: 35.5 µM [rising, single point]

Question: For CC(/C=C/c1ccccc1)=N/NC(=O)CNC(=O)c1ccccc1F, which AC50 [1] is on record?
Answer: 1.41 µM [rising, full curve, poor fit]

Question: Which AC50 [1] does the source give for O=c1cc(-c2ccccc2)nc2cc(-c3ccco3)[nH]n12 here?
Answer: 0.891 µM [falling, full curve]

Question: For CC(=O)OCC(=O)[C@@]1(O)CC[C@H]2[C@@H]3CCC4=CC(=O)CC[C@]4(C)[C@H]3[C@@H](O)C[C@@]21C, which AC50 [1] is on record?
Answer: 1.84 µM [rising, partial curve, poor fit] and 1.46 µM [rising, full curve]

Question: For CCOc1ccc(N2CC(C(=O)N3CCCc4ccccc43)CC2=O)cc1 (stereo unspecified), which AC50 [1] is on record?
Answer: 0.0891 µM [falling, full curve, poor fit]

Question: For N#Cc1c(Nc2ccccc2Cl)s[nH]c1=O, which AC50 [1] is on record?
Answer: 20 µM [falling, single point]

Question: Which AC50 [1] does the source give for O=C(CSc1ncnc2ccccc12)NCCCO here?
Answer: 7.31 µM [falling, partial curve]

Question: For Cc1cc(-c2nc3ncccc3o2)ccc1NC(=S)NC(=O)C(C)C, which AC50 [1] is on record?
Answer: 3.55 µM [rising, partial curve]

Question: Which AC50 [1] does the source give for COc1ccccc1C(=O)Nc1nnc(CCc2ccccc2)s1 here?
Answer: 0.355 µM [rising, full curve, poor fit]

Question: With CC(=O)Nc1ccc(OCCOc2ccc([N+](=O)[O-])cc2)cc1 as the molecule, how does the AC50 [1] read?
Answer: 35.5 µM [rising, single point]

Question: With COc1ccc(S(=O)(=O)Nc2ccccc2C(=O)Nc2nc(-c3ccc(F)cc3)cs2)cc1OC as the molecule, how does the AC50 [1] read?
Answer: 29.1 µM [falling, single point]

Question: With CCOc1cccc(OCCOc2ccc(C(=O)c3ccccc3)cc2)c1 as the molecule, how does the AC50 [1] read?
Answer: 4.11 µM [rising, single point]

Question: Which AC50 [1] does the source give for O=C1CN(CC(=O)N2CCCCC2)c2ccccc2O1 here?
Answer: 1.41 µM [falling, full curve]

Question: For COc1cccc(C(=O)Nc2cccc(NC(C)=O)c2)c1, which AC50 [1] is on record?
Answer: 4.47 µM [falling, partial curve, poor fit]

Question: Which AC50 [1] does the source give for CCCCOc1ccc(N2CC(C(=O)NCCc3ccc(OC)c(OC)c3)CC2=O)cc1 (stereo unspecified) here?
Answer: 11.2 µM [rising, partial curve, poor fit]

Question: Which AC50 [1] does the source give for Cc1ccc(C)c(OCc2ccc(C(=O)NN)o2)c1 here?
Answer: 2.24 µM [falling, full curve, poor fit]

Question: Which AC50 [1] does the source give for Fc1ccc2cc(CCO[C@H]3CCCCO3)ncc2c1 here?
Answer: 7.31 µM [rising, partial curve]

Question: For Cc1ccc(-n2cc(C(=O)c3ccc(F)cc3)nn2)cc1Cl, which AC50 [1] is on record?
Answer: 0.794 µM [rising, full curve]

Question: For CCC(c1nc2ccccc2c(=O)n1-c1nc2ccccc2s1)N1C(=O)c2ccccc2C1=O (stereo unspecified), which AC50 [1] is on record?
Answer: 16.4 µM [rising, partial curve, poor fit]

Question: With Cc1ccsc1S(=O)(=O)N1CCCC(CCC(=O)NCc2ccccc2F)C1 (stereo unspecified) as the molecule, how does the AC50 [1] read?
Answer: 12.6 µM [rising, partial curve, poor fit]

Question: Which AC50 [2] does the source give for Cc1ccc(NC(=O)c2nc[nH]c2C(=O)NCC(=O)OC(C)(C)C)cc1 here?
Answer: 0.708 µM [rising, full curve, poor fit]

Question: With Cc1[nH]c(=O)[nH]c(=O)c1NC(=O)CSc1ncccc1-c1nc2ccccc2[nH]1 as the molecule, how does the AC50 [1] read?
Answer: 11.2 µM [falling, partial curve]

Question: With NC(=O)c1ccc(NC(=O)COC(=O)CCCN2C(=O)c3cccc4cccc(c34)C2=O)cc1 as the molecule, how does the AC50 [1] read?
Answer: 1.84 µM [rising, full curve, poor fit]

Question: With Nc1ccc(-c2nc3ccc(C(=O)O)cc3s2)cc1 as the molecule, how does the AC50 [1] read?
Answer: 0.13 µM [falling, full curve]

Question: What about the AC50 [2] of the same molecule?
Answer: 20.6 µM [rising, partial curve, poor fit]

Question: With CC1CCc2c(sc(NC(=O)c3ccc(Cn4cc([N+](=O)[O-])cn4)o3)c2C#N)C1 (stereo unspecified) as the molecule, how does the AC50 [1] read?
Answer: 10 µM [falling, partial curve, poor fit]

Question: For COc1cccc(C(=O)Nc2c(C)n[nH]c2C)c1, which AC50 [1] is on record?
Answer: 16.4 µM [rising, single point]

Question: With O=C(Nc1nc2c(F)cc(F)cc2s1)c1ccc2c(c1)OCCO2 as the molecule, how does the AC50 [1] read?
Answer: 3.66 µM [falling, partial curve, poor fit]

Question: For O=C(CSc1ccc(F)cc1)Nc1ccc(N2CCOCC2)cc1, which AC50 [1] is on record?
Answer: 12.6 µM [rising, single point]

Question: For Cc1ccccc1-c1nnn(CC(=O)NCc2ccc3c(c2)OCO3)n1, which AC50 [1] is on record?
Answer: 2.82 µM [falling, full curve]

Question: With N/C(=N\c1nc2ccccc2o1)NC(=O)c1ccc(F)cc1 as the molecule, how does the AC50 [1] read?
Answer: 4.47 µM [falling, full curve]

Question: For CCN1CCC(Nc2ccnc3cc(Cl)ccc23)CC1, which AC50 [1] is on record?
Answer: 11.2 µM [falling, partial curve, poor fit]

Question: With CC(C)CCC1(C)NC(=O)N(CC(=O)NCC(=O)Nc2ccc(F)c(F)c2F)C1=O (stereo unspecified) as the molecule, how does the AC50 [1] read?
Answer: 0.184 µM [rising, full curve, poor fit]

Question: With Cn1c(=O)n(CC(=O)Nc2ccc(F)cc2)c2ccccc21 as the molecule, how does the AC50 [1] read?
Answer: 18.4 µM [rising, single point]

Question: With O=C(O)c1ccc(N=NN2CCCC2)cc1 as the molecule, how does the AC50 [1] read?
Answer: 6.31 µM [falling, partial curve]

Question: With N/C(=N\OC(=O)Cc1cccs1)c1cccc([N+](=O)[O-])c1 as the molecule, how does the AC50 [1] read?
Answer: 25.9 µM [rising, partial curve, poor fit]

Question: For CCCC1c2ccsc2CCN1C(=S)NC (stereo unspecified), which AC50 [1] is on record?
Answer: 10 µM [rising, partial curve, poor fit]

Question: With COC(=O)c1ccc(-c2ccc(OC)c([C@H]3[C@H]4C=CC[C@@H](C)[C@@H]4C(=O)N3Cc3ccccc3)c2)cc1 as the molecule, how does the AC50 [1] read?
Answer: 35.5 µM [rising, single point]

Question: With O=C(c1ccc(CS(=O)c2ccccc2Cl)o1)N1CCN(c2ccccc2)CC1 (stereo unspecified) as the molecule, how does the AC50 [1] read?
Answer: 15.8 µM [rising, partial curve, poor fit]

Question: What about the AC50 [2] of the same molecule?
Answer: 15.8 µM [falling, partial curve]

Question: Which AC50 [1] does the source give for O=C(Nc1ccc(-c2nc3ccccc3s2)c(O)c1)C1=COCCO1 here?
Answer: 0.206 µM [rising, full curve, poor fit]

Question: For Cc1cc(-c2ccc(C)c(S(=O)(=O)NC(C)Cc3ccco3)c2)on1 (stereo unspecified), which AC50 [1] is on record?
Answer: 25.1 µM [falling, single point]

Question: With CCN(CC)S(=O)(=O)c1cccc(NC(=O)C(=O)c2c(-c3ccccc3)cc3ccccn23)c1 as the molecule, how does the AC50 [1] read?
Answer: 6.51 µM [falling, single point]

Question: Which AC50 [1] does the source give for COc1ccc(-n2ccc3ccccc32)cc1 here?
Answer: 2.24 µM [rising, partial curve, poor fit]

Question: With O=C(NC(=S)Nc1ccc2c(c1)OCCO2)c1ccccc1F as the molecule, how does the AC50 [1] read?
Answer: 17.8 µM [falling, single point]

Question: Which AC50 [1] does the source give for COc1ccccc1-c1ccc(=O)n(CC(=O)NC2CCc3ccccc32)n1 (stereo unspecified) here?
Answer: 35.5 µM [falling, partial curve, poor fit]

Question: With CCN(C(=O)Cn1c(=O)oc2ccccc21)c1cccc(C)c1 as the molecule, how does the AC50 [1] read?
Answer: 2.51 µM [falling, partial curve]

Question: Which AC50 [1] does the source give for COc1cccc(OC)c1NC(=O)c1nc2c(nnn2Cc2ccccc2Cl)c(=O)[nH]1 here?
Answer: 17.8 µM [rising, partial curve, poor fit]

Question: With CCc1cc(C(=O)NNC(=O)CCl)sc1C as the molecule, how does the AC50 [1] read?
Answer: 35.5 µM [falling, single point]

Question: Which AC50 [1] does the source give for CCOc1ccc(C(=O)OCC(=O)Nc2ccc3c(c2)OCCO3)cc1OC here?
Answer: 0.731 µM [rising, partial curve, poor fit]

Question: With CNC(=O)Nc1cc(C)nn1C as the molecule, how does the AC50 [1] read?
Answer: 35.5 µM [rising, partial curve, poor fit]

Question: With CS(=O)(=O)c1nc(-c2ccc(F)cc2)cc(C(F)(F)F)n1 as the molecule, how does the AC50 [1] read?
Answer: 5.62 µM [falling, full curve]

Question: And the AC50 [2]?
Answer: 7.08 µM [rising, full curve, poor fit]

Question: With CCOc1ccc(N=c2cc(-c3ccc(OC)cc3)oc3ccccc23)cc1 as the molecule, how does the AC50 [1] read?
Answer: 23.1 µM [rising, partial curve, poor fit]

Question: With O=c1c2ccccc2nnn1COc1ccc(Cl)cc1Br as the molecule, how does the AC50 [1] read?
Answer: 35.5 µM [rising, single point]
